This is an account of results in patent publication US7550484B2, “Chemokine receptor binding heterocyclic compounds with enhanced efficacy” (Genzyme Corporation, priority 2003, dated 2009).

The test system of this data set is white blood cells, CD34 positive progenitor cells, CFU-GM, BFU-E, CFU-GEMM progenitor cells. The note with it: prior to and 1, 3, 6, 9 and 24 hours after injection. The procedure: Five healthy human volunteers having initial white blood cell counts of 4,500-7,500 cells/mm^3 were used in the study. […] Blood samples were obtained via catheter prior to the dose, and at various times up to 24 hours after dosing.
The blood samples were evaluated for total white blood cells, CD34 positive progenitor cells (via FACS analysis) as a percentage of total white blood cells, as well as the absolute numbers per mL and cycling status of granulocyte macrophage (CFU-GM), erythroid (BFU-E), and multipotential (CFU-GEMM) progenitor cells.
All progenitor cell results are based on the scoring of 3 culture plates per assay per point.
For the progenitor cell numbers and cycling status, the numbers of CFU-GM, BFU-E and CFU-GEMM in methylcellulose cultures by stimulation of the cells with 1 Unit (U)/ml recombinant human (rhu) erythropoietin, 100 U/ml rhu granulocyte-macrophage colony stimulating factor (GM-CSF), 100 U/ml rhu interleukin-3 (IL-3) and 50 ng/ml rhu steel factor (SLF=stem cell factor (SCF)). The CFU-GM were also evaluated in agar cultures stimulated with 100 U/ml rhu GM-CSF and 50 ng/ml rhu SLF. For both types of assays, colonies were scored after 14 day incubation in a humidified atmosphere with 5% CO2 and lowered (5%) O2 tension. […]

As to `c1cc(CN2CCCNCCNCCCNCC2)ccc1CN1CCCNCCNCCCNCC1` [AMD3100, 1,1′-[1,4-phenylenebis(methylene)]-bis-1,4,8,11-tetra-azacyclotetradecane], the “Cycling state of progenitors” value is “slow or non-cycling state”.
